Measurements reported in article PMC6131760, “4-Phenyl-1,3-thiazole-2-amines as scaffolds for new antileishmanial agents” (The Journal of Venomous Animals and Toxins Including …, 2018).

Tested on: VERO cells
Experiment: Cytotoxicity assay in Vero cells (MTT)
Format: cell-based, African green monkeys
Settings: CC50 VERO cells / IC50 L. amazonensis
Procedure: Cytotoxicity was also evaluated using Vero cells, a monkey kidney cell line obtained from the American Type Culture Collection (ATCC CCL-81; Manassas, VA). The cytotoxicity was determined by the 3-(4,5dimethylthiazol- 2-yl)-2,5-diphenyltetrazolium bromide (MTT) method according to a previously described procedure.
In all cases, the CC50 was calculated as described as in the Antileishmanial assay Section.
Selectivity indexes (SI) were calculated by dividing CC50 against each mammalian cell line by the IC50 against L. amazonensis (CC50/IC50).

CCc1ccc(-c2csc(N)n2)cc1 [Compound 3]
SI: 26.11
